Assay results as given in publication PMC3668712.
Results are given in words; binding and its absence hold for the method and conditions named. In cells and extracts the contact can be indirect. A yes stands for co-enrichment or nearness to the bait. Other partners may have been found. A no says only that the protein was not detected with the bait.

Sequences of proteins named here, by UniProt entry; tags and fusion partners are left off. Residues count along the entry.
UniProt Q6PB66, residues 60-1392: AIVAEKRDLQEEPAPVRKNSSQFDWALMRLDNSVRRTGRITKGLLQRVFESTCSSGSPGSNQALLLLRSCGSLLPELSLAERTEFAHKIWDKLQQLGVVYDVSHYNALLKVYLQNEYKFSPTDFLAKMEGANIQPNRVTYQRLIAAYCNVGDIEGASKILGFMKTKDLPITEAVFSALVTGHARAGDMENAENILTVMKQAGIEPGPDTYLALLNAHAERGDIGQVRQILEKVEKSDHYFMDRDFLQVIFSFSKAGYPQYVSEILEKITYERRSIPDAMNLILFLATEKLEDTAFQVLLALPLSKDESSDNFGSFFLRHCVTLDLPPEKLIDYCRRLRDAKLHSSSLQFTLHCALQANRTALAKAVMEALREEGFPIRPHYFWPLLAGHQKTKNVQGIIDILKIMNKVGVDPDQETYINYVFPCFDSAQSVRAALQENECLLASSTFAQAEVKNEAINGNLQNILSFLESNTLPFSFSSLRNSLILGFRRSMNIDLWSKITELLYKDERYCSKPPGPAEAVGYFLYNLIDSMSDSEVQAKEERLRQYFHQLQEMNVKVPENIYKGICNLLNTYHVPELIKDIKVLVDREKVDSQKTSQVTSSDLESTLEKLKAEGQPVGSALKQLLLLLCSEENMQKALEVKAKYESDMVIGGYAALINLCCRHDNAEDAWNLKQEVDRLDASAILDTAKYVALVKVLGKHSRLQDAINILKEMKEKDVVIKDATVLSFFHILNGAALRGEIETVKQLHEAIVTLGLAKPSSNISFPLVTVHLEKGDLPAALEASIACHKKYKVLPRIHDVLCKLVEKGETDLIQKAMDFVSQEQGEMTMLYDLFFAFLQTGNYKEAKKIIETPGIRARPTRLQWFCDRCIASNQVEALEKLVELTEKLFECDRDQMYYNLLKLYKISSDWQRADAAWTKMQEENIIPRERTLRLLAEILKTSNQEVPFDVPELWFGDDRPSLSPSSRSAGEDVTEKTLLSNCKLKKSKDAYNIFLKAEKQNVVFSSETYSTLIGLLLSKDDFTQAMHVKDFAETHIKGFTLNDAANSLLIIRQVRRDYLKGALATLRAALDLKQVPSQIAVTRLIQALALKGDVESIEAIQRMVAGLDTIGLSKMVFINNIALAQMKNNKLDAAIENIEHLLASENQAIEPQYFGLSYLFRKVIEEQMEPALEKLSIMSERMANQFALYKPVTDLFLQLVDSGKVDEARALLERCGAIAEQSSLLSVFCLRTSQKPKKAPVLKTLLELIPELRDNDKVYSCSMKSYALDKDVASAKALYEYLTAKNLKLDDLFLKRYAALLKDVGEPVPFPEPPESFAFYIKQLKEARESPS
UniProt Q8BKF1, residues 42-1207: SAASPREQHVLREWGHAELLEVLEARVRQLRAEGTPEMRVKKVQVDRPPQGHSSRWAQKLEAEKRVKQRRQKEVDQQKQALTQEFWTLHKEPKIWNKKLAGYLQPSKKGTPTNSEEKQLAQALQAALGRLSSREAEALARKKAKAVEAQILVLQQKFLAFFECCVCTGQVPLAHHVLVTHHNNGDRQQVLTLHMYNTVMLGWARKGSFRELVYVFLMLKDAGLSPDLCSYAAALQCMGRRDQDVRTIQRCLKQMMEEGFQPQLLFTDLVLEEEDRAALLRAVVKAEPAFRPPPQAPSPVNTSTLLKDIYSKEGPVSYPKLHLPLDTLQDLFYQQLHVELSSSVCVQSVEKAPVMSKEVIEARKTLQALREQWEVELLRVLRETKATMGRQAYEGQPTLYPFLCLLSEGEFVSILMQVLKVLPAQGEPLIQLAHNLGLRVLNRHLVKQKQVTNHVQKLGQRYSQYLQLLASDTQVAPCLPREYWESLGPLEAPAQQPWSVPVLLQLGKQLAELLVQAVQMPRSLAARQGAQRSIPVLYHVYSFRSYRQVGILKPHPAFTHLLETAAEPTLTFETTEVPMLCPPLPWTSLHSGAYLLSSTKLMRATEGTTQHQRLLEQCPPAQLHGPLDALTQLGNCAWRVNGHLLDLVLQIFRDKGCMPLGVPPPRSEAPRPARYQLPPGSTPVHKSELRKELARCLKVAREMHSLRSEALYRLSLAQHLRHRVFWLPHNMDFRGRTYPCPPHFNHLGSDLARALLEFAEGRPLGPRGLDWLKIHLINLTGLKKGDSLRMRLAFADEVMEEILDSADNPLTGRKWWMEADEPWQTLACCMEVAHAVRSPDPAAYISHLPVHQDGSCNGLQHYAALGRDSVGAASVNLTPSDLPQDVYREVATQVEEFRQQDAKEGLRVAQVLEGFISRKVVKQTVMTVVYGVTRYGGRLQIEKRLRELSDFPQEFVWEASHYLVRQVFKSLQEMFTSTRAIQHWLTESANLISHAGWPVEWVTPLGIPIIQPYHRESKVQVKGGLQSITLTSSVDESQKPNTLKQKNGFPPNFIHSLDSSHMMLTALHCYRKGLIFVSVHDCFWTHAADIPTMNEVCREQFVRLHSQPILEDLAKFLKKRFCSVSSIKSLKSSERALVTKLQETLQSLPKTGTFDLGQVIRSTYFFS

Biological target: mouse LRPPRC-FLAG (mouse) (UniProt Q6PB66)
Experiment: affinity purification with mass spectrometry; anti-FLAG M2 affinity gel on mitochondrial extracts from liver, kidney and heart of LRPPRC-FLAG BAC transgenic mice; lysis buffer B; mass spectrometry

binding: no binding
Substance: mouse POLRMT (from UniProt Q8BKF1 42-1207)
